The supplement of paper PMC11264405

How the values were obtained:
Test in all cases: minimum inhibitory concentration
[1] = compound: CCc1c(Cl)c(O)c(Cl)c(O)c1C(=O)O[C@H]1[C@H](O)[C@H](OC)[C@H](OC/C2=C\C=C\C[C@H](O)/C(C)=C/[C@H](CC)[C@@H](O[C@@H]3OC(C)(C)[C@@H](OC(=O)C(C)C)[C@H](O)[C@@H]3O)/C(C)=C/C(C)=C/C[C@@H]([C@@H](C)O)OC2=O)O[C@@H]1C [fidaxomicin]
[2] = compound: CO[C@H]1/C=C/O[C@@]2(C)Oc3c(C)c(O)c4c(O)c(c(/C=N/N5CCN(C)CC5)c(O)c4c3C2=O)NC(=O)/C(C)=C\C=C\[C@H](C)[C@H](O)[C@@H](C)[C@@H](O)[C@@H](C)[C@H](OC(C)=O)[C@@H]1C [rifampicin]
[3] = compound: CN(C)c1cc(NC(=O)CNC(C)(C)C)c(O)c2c1C[C@H]1C[C@H]3[C@H](N(C)C)C(O)=C(C(N)=O)C(=O)[C@@]3(O)C(O)=C1C2=O [tigecycline]
[4] = compound: C[C@@H](O)[C@H]1C(=O)N2C(C(=O)O)=C(SCCNC=N)C[C@H]12 [imipenem]
[5] = compound: Cc1ncc([N+](=O)[O-])n1CCO [metronidazole]
[6] = compound: C[C@@H](O)[C@H]1C(=O)N2C(C(=O)O)=C(S[C@@H]3CN[C@H](C(=O)N(C)C)C3)[C@H](C)[C@H]12 [meropenem]
[7] = compound: CC(=O)NC[C@H]1CN(c2ccc(N3CCOCC3)c(F)c2)C(=O)O1 [linezolid]
[8] = compound: CCC[C@@H]1C[C@@H](C(=O)N[C@@H]([C@H]2O[C@H](SC)[C@H](O)[C@@H](O)[C@H]2O)[C@H](C)Cl)N(C)C1 [clindamycin]
[9] = compound: CN[C@H](CC(C)C)C(=O)N[C@H]1C(=O)N[C@@H](CC(N)=O)C(=O)N[C@H]2C(=O)N[C@H]3C(=O)N[C@H](C(=O)N[C@H](C(=O)O)c4cc(O)cc(O)c4-c4cc3ccc4O)[C@H](O)c3ccc(c(Cl)c3)Oc3cc2cc(c3O[C@@H]2O[C@H](CO)[C@@H](O)[C@H](O)[C@H]2O[C@H]2C[C@](C)(N)[C@H](O)[C@H](C)O2)Oc2ccc(cc2Cl)[C@H]1O [vancomycin]

Test System	minimum inhibitory concentration [1]	minimum inhibitory concentration [2]	minimum inhibitory concentration [3]	minimum inhibitory concentration [4]	minimum inhibitory concentration [5]	minimum inhibitory concentration [6]	minimum inhibitory concentration [7]	minimum inhibitory concentration [8]	minimum inhibitory concentration [9]
Clostridioides difficile PCR ribotype 131 isolate #216 (European region: West, country: Netherlands, isolate source: Human, ribotype: 131)	0.06 µg/mL	< 0.001 µg/mL	0.06 µg/mL	1 µg/mL	0.25 µg/mL	4 µg/mL	2 µg/mL	16 µg/mL	1 µg/mL
Clostridioides difficile PCR ribotype 132 isolate #217 (European region: West, country: France, isolate source: Human, ribotype: 132)	0.03 µg/mL	< 0.001 µg/mL	< 0.03 µg/mL	2 µg/mL	0.25 µg/mL	2 µg/mL	1 µg/mL	32 µg/mL	0.5 µg/mL
Clostridioides difficile PCR ribotype 137 isolate #218 (European region: North, country: UK, isolate source: Human, ribotype: 137)	0.03 µg/mL	< 0.001 µg/mL	0.125 µg/mL	2 µg/mL	< 0.125 µg/mL	2 µg/mL	2 µg/mL	16 µg/mL	1 µg/mL
Clostridioides difficile PCR ribotype 140 isolate #219 (European region: North, country: UK, isolate source: Human, ribotype: 140)	0.06 µg/mL	< 0.001 µg/mL	< 0.03 µg/mL	4 µg/mL	0.25 µg/mL	2 µg/mL	2 µg/mL	1 µg/mL	0.5 µg/mL
Clostridioides difficile PCR ribotype 145 isolate #396 (European region: West, country: Netherlands, isolate source: Animal, ribotype: 145)	0.03 µg/mL	< 0.001 µg/mL	< 0.03 µg/mL	1 µg/mL	< 0.125 µg/mL	4 µg/mL	2 µg/mL	1 µg/mL	0.5 µg/mL
Clostridioides difficile PCR ribotype 153 isolate #220 (European region: North, country: UK, isolate source: Human, ribotype: 153)	0.06 µg/mL	< 0.001 µg/mL	0.06 µg/mL	2 µg/mL	< 0.125 µg/mL	2 µg/mL	2 µg/mL	8 µg/mL	1 µg/mL
Clostridioides difficile PCR ribotype 154 isolate #221 (European region: East, country: Romania, isolate source: Human, ribotype: 154)	0.008 µg/mL	< 0.001 µg/mL	< 0.03 µg/mL	4 µg/mL	0.25 µg/mL	4 µg/mL	2 µg/mL	8 µg/mL	0.5 µg/mL
Clostridioides difficile PCR ribotype 154 isolate #222 (European region: South, country: Spain, isolate source: Human, ribotype: 154)	0.06 µg/mL	< 0.001 µg/mL	< 0.03 µg/mL	4 µg/mL	0.25 µg/mL	4 µg/mL	2 µg/mL	16 µg/mL	1 µg/mL
Clostridioides difficile PCR ribotype 161 isolate #223 (European region: East, country: Romania, isolate source: Human, ribotype: 161)	0.03 µg/mL	< 0.001 µg/mL	0.06 µg/mL	4 µg/mL	0.25 µg/mL	2 µg/mL	2 µg/mL	16 µg/mL	0.5 µg/mL
Clostridioides difficile PCR ribotype 161 isolate #224 (European region: East, country: Romania, isolate source: Human, ribotype: 161)	0.03 µg/mL	< 0.001 µg/mL	0.06 µg/mL	4 µg/mL	0.25 µg/mL	2 µg/mL	2 µg/mL	16 µg/mL	2 µg/mL
Clostridioides difficile PCR ribotype 163 isolate #225 (European region: South, country: Spain, isolate source: Human, ribotype: 163)	0.03 µg/mL	< 0.001 µg/mL	0.06 µg/mL	4 µg/mL	0.25 µg/mL	2 µg/mL	2 µg/mL	2 µg/mL	0.5 µg/mL
Clostridioides difficile PCR ribotype 174 isolate #397 (European region: East, country: Romania, isolate source: Animal, ribotype: 174)	0.06 µg/mL	< 0.001 µg/mL	< 0.03 µg/mL	2 µg/mL	< 0.125 µg/mL	4 µg/mL	2 µg/mL	16 µg/mL	1 µg/mL
Clostridioides difficile PCR ribotype 176 isolate #227 (European region: East, country: Romania, isolate source: Human, ribotype: 176)	0.03 µg/mL	> 32 µg/mL	< 0.03 µg/mL	8 µg/mL	1 µg/mL	4 µg/mL	2 µg/mL	4 µg/mL	0.5 µg/mL
